According to patent US20250195590A1, “PHAGE AND ALLICIN COMPOSITION FOR INFECTION TREATMENT” (GUANGZHOU MEDICAL UNIVERSITY, priority 2023, published 2025):
At least one structure is not confirmed: it was looked up by name or label, or the drawing left a doubt.

System: Pseudomonas aeruginosa host bacteria
Experiment: Drug resistance of host bacteria
Assay type: cell-based

Measured: Drug resistance of host bacteria

C[C@@H](O)[C@H]1C(=O)N2C(C(=O)O)=C(SCCN=CN)C[C@H]12 [Imipenem]
Resistant: strain B- P. aeruginosa-029 | strain B- P. aeruginosa-037 | strain B- P. aeruginosa-038 | strain B-P. AERUGINOSA-027 | strain P. aeruginosa-1 (r118) | strain P. aeruginosa-2 (r74) | strain P. aeruginosa-4 | strain P. aeruginosa-8 | strain P. aeruginosa-13 | strain P. aeruginosa-14 | strain P. aeruginosa-26 | strain P. aeruginosa-29 | strain P. aeruginosa′-3 | strain P. aeruginosa′-5 | strain P. aeruginosa′-11

C[C@H]1COc2c(N3CCN(C)CC3)c(F)cc3c(=O)c(C(=O)O)cn1c23 [Levofloxacin]
Resistant: strain B- P. aeruginosa-037 | strain B- P. aeruginosa-041 | strain B- P. aeruginosa-042 | strain B-P. AERUGINOSA-027 | strain P. aeruginosa-5 | strain P. aeruginosa-8 | strain P. aeruginosa-14 | strain P. aeruginosa-22 | strain P. aeruginosa-25 | strain P. aeruginosa-27 | strain P. aeruginosa-29 | strain P. aeruginosa-31 | strain P. aeruginosa′-9 (r14) | strain P. aeruginosa′-11
